Results on 11 molecules are retold here after PubChem BioAssay (NCATS).

Each structure is given as a SMILES string. “And” between values parts separate entries of the source, which are not always exact repeats. Equal values may be shown once. The list shows a part of the results. Shown are side measurements of this screen, not its main read-out; they come without a call. Compounds called inactive in the main read-out are mostly missing here. For part of these data: Words in brackets tell the shape of the fitted curve; partial curves, single points and poor fits give uncertain potencies.

The nature of experiment [1]: Validation of Assay for Modulators of Lamin A Splicing (AID 1459). The settings on record: Lamin A splicing dual RFP/GFP fluorescence reporter, ratio. In outline:
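Readout: ratio of GFP (500-530 nm) to RFP (575-640 nm) total object intensity by 488 nm laser-scanning cytometry after 48 hrs. Cells were HeLa S3 clones carrying lamin A-EGFP minigene plus DsRed2 viability reporter; vehicle 0.5% DMSO final.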

Experiment [2] is described as follows: qHTS Assay for Lipid Storage Modulators (AID 1519). The settings on record: Drosophila S3 cells, BODIPY lipid droplet/cell ratio, laser cytometry, cells loaded with oleic acid. In outline: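 Cells seeded at 5,000 per well were treated with compounds over a concentration series and loaded with oleic acid (400 uM, as added). Lipid droplet fluorescence (488 nm excitation, 500-530 nm channel) was read by laser-scanning cytometry and normalized to 20 uM Triacsin C.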

Experiment [3] in a line: qHTS Assay for Modulators of Human Peripheral Myelin Protein 22 (PMP22) Expression/Activity (AID 1967). The settings on record: Cell-based PMP22 reporter, dual-color luciferase ratio. The method, boiled down: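 Mouse MSC80 Schwann line, Pmp22 promoter–CBG68 reporter, EF-alpha–CBR internal control. 24h compound exposure, 37 °C/5% CO2, DMEM + 10% FBS. Readout: corrected green/red luminescence ratio, normalized to untreated cells; concentration-response curves fitted and classified.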

A short description of experiment [4]: qHTS Validation Assay to Find Inhibitors of Chronic Active B-Cell Receptor Signaling (AID 485345). As to conditions: ABC-DLBCL cells, chronic BCR signaling reporter. In outline:
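TMD8 ABC-DLBCL cells stably carrying doxycycline-inducible IkappaBalpha–green luciferase fusion plus unfused red luciferase; compounds 46 uM to 3 nM, 4 h at 37C with doxycycline. Corrected green/red luminescence ratio normalized to 10 uM MG-132 and basal cell wells; curves fitted.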

Experiment [5] in a line: Nrf2 qHTS screen for inhibitors: Validation (AID 493153). The settings on record: A549 ARE-Fluc reporter, 18-24 h; AC50: CellTiter-Fluor fluorescence read, measured here: cytotoxicity CellTiter-Fluor AC50; viability change: measured here: cytotoxicity max response. In outline:
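Dose-response validation uses reporter A549 cells with firefly luciferase under an antioxidant response element. Compounds stay on cells 18-24 h at 37°C, and luminescence indicates Nrf2-driven transcription.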

Experiment [6] can be described thus: qHTS Assay for Inhibitors of PDE-IV (AID 607). The settings on record: HEK293 ACTOne CNG channel cells, membrane potential fluorescence; measured here: parental cell counter-screen. In outline: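 The readout is membrane depolarisation from a cAMP-sensing CNG channel, detected with a potential dye at ex 535/em 590. Cells were HEK293-derived (endogenous PDE-IV) at 1000 cells/well, titrated up to 22.9 uM final.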

A short description of experiment [7]: qHTS assay for small molecule antagonists of peroxisome proliferator-activated receptor delta signaling (AID 588535).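 Also: cells co-treated with a PPAR-delta agonist as stimulator during compound exposure.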 The settings on record: HEK293T PPARd-UAS-bla, beta-lactamase FRET ratio, 18 h; 460 nm channel. In outline: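 Cells were seeded at 4000 per well in assay medium containing 2% charcoal/dextran FBS and held 5 hrs at 37 C. Compounds were then added for 18 hrs. CCF4 substrate was applied for 2 hrs at room temperature before fluorescence reading.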

Experiment [8] is described as follows: A High-Content qHTS Against Drug Library for the Identification of Small Molecules that Inhibit DYT1 Early Onset Primary Dystonia-Associated Cell Pathology (AID 1645839). The settings on record: HEK293 Flp-In EGFP-delE TorsinA, punctate imaging, 48 h; measured here: cell count cytotoxicity. The method, boiled down: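 Flp-In T-REx 293 cells with tetracycline-inducible EGFP-delE hTOR1A (WT EGFP-hTOR1A as reference), 800 cells/well; compound added with tetracycline, 48 h at 37 C. Fixed, permeabilized cells imaged; %pathology (punctate TorsinA) primary, cell count counterscreen.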

Setting [9] is: measured here: cell count channel max response.
[10] abbreviates: measured here: cell number channel AC50.
Setting [11] is: measured here: lipid (BODIPY) channel AC50.
The mark [12] stands for this setting: measured here: lipid channel max response.
The mark [13] stands for this setting: measured here: green reporter channel AC50, mouse Pmp22 promoter in mouse Schwann cells.
Where [14] appears, read: measured here: red reporter channel AC50, EF-alpha promoter control reporter in MSC80 mouse Schwann cells.
Setting [15] is: measured here: CBG/CBR ratio read-out.
[16] abbreviates: measured here: CBR control luciferase (viability counter).

As for `NCCNS(=O)(=O)c1cccc2cnccc12`, the AC50 was 14.1 µM [falling, single point] in experiment [1] (measured here: RFP channel); 15.8 µM [rising, full curve, poor fit] and 39.8 µM [rising, single point] in experiment [2] (setting [10]); 20 µM [rising, partial curve, poor fit] and 39.8 µM [rising, single point] in experiment [2] (setting [11]); 37.9 µM [rising, single point] in experiment [3] (setting [13]). Further, the max response is 30.3% and 43.1% in experiment [2] (setting [9]); 46.1% and 45.7% in experiment [2] (setting [12]).
Regarding `CC(=O)N[C@@H](Cc1c[nH]c2ccccc12)C(=O)OCc1cc(C(F)(F)F)cc(C(F)(F)F)c1`, the half-maximal activity concentration (AC50) in experiment [1] (measured here: GFP channel) is 35.5 µM [rising, single point]; in experiment [2] (setting [10]), 5.01 µM [rising, full curve]; in experiment [2] (setting [11]), 5.01 µM [rising, full curve]. Also, the max response in experiment [2] (setting [9]) was 81.1%; in experiment [2] (setting [12]), 124%.
With `CCCCOC(=O)NS(=O)(=O)c1sc(CC(C)C)cc1-c1ccc(Cn2c(CC)nc3c(C)cc(C)nc32)cc1`, the half-maximal activity concentration (AC50) in experiment [1] (measured here: GFP channel) is 35.5 µM [rising, single point]; in experiment [1] (measured here: RFP channel), 22.4 µM [falling, partial curve]; in experiment [3] (setting [13]), 33.8 µM [falling, full curve]; in experiment [3] (setting [14]), 30.1 µM [falling, full curve]; in experiment [4] (setting [15]), 10.3 µM [falling, partial curve]; in experiment [4] (setting [16]), 29.1 µM [falling, single point]. In experiment [5], the AC50 is 14.6 µM [falling, partial curve]. Besides, the viability change in experiment [5] is -31.9%.
Regarding `CCCn1c(=O)c2[nH]c(C3CCCC3)nc2n(CCC)c1=O`, the concentration at half-maximal activity (AC50) is 17.8 µM [falling, single point] in experiment [1] (measured here: RFP channel); 14.1 µM [rising, partial curve] in experiment [2] (setting [10]); 14.1 µM [rising, partial curve] in experiment [2] (setting [11]); 84.9 µM [falling, partial curve] in experiment [3] (setting [14]); 0.0651 µM [falling, full curve] in experiment [4] (setting [16]). The max response is 86.8% and 52.4% in experiment [2] (setting [9]); 110% and 50.1% in experiment [2] (setting [12]).
In the case of `C#CCN1C(C)=C(C(=O)OC)C(c2cccc([N+](=O)[O-])c2)C(C(=O)OCC)=C1C` (stereo not given), the AC50 was 35.5 µM [rising, single point] in experiment [1] (measured here: GFP channel); 0.0158 µM [rising, single point] in experiment [2] (setting [10]); 0.02 µM [rising, single point] in experiment [2] (setting [11]); 33.8 µM [falling, partial curve] in experiment [3] (setting [13]); 53.6 µM [falling, partial curve, poor fit] in experiment [3] (setting [14]); 9.2 µM [falling, partial curve] in experiment [4] (setting [15]). The max response in experiment [2] (setting [9]) was 43.8%; in experiment [2] (setting [12]) it was 45.5%.
`Cc1nc2sccn2c(=O)c1CCN1CCC(=C(c2ccc(F)cc2)c2ccc(F)cc2)CC1`: the AC50 in experiment [6] was 15.8 µM [rising, partial curve]; in experiment [1] (measured here: GFP channel), 31.6 µM [falling, single point]; in experiment [1] (measured here: RFP channel) it was 25.1 µM [falling, partial curve]; in experiment [3] (setting [13]) it was 67.5 µM [falling, partial curve]; in experiment [3] (setting [14]) it was 53.6 µM [falling, partial curve]; in experiment [4] (setting [16]), 29.1 µM [falling, single point].
Consider `C/C(=C\c1ccc(C(=O)O)cc1)c1ccc2c(c1)C(C)(C)CCC2(C)C`, for which the AC50 is 35.5 µM [falling, single point] in experiment [1] (measured here: GFP channel); 25.1 µM [falling, partial curve] in experiment [1] (measured here: RFP channel); 84.9 µM [falling, partial curve, poor fit] in experiment [3] (setting [14]); 7.31 µM [falling, partial curve] in experiment [4] (setting [15]); 0.00651 µM [rising, full curve, poor fit] in experiment [4] (setting [16]). Also, the viability change in experiment [5] was -8.84%. Further, the max response in experiment [7] turned out to be 87.4%.
Take `CC(C)(C)c1cc(/C=C(\C#N)C(N)=S)cc(C(C)(C)C)c1O`: the AC50 in experiment [6] is 5.01 µM [rising, full curve]; in experiment [1] (measured here: GFP channel), 2 µM [rising, partial curve, poor fit]; in experiment [2] (setting [10]), 4.47 µM [falling, full curve]; in experiment [2] (setting [11]) it was 4.47 µM [falling, full curve]; in experiment [3] (setting [13]), 33.8 µM [falling, partial curve]; in experiment [3] (setting [14]), 33.8 µM [falling, partial curve]. Besides, the AC50 in experiment [4] (setting [15]) was 10.3 µM [falling, single point]; in experiment [4] (setting [16]), 23.1 µM [falling, single point]; in experiment [5], 9.2 µM [falling, partial curve, poor fit]. The figures for the max response in experiment [2] (setting [9]) and in experiment [2] (setting [12]) were -31.8% and -65.8%, respectively. Also, in experiment [5], the viability change was -35.9%.
As for `C[C@@H](CN1CCC(Cc2ccccc2)CC1)[C@@H](O)c1ccc(O)cc1`, the half-maximal activity concentration (AC50) was 10 µM [rising, partial curve, poor fit] in experiment [1] (measured here: GFP channel); 14.1 µM [rising, partial curve, poor fit] in experiment [2] (setting [10]); 15.8 µM [rising, partial curve, poor fit] in experiment [2] (setting [11]). In addition, the results for the max response in experiment [2] (setting [9]) and in experiment [2] (setting [12]) were 38.5% and 42.6%, respectively.
As for `CC(C)NC[C@@H](O)COc1cccc2ccccc12`, the AC50 is 31.6 µM [rising, single point] in experiment [1] (measured here: GFP channel); 15.8 µM [rising, single point] in experiment [2] (setting [10]); 20 µM [rising, single point] and 35.5 µM [rising, single point] in experiment [2] (setting [11]); 75.7 µM [falling, partial curve] in experiment [3] (setting [13]); 84.9 µM [falling, single point] in experiment [3] (setting [14]); 35.5 µM [falling, single point] in experiment [8]. Moreover, the max response is 14.8% and 26.9% and 38.1% in experiment [2] (setting [9]); 24.3% and 46.6% and 42.8% in experiment [2] (setting [12]).
As to `NC(=O)c1cc[n+](CC2=C(C(=O)O)N3C(=O)[C@@H](NC(=O)[C@@H](c4ccccc4)S(=O)(=O)[O-])[C@H]3SC2)cc1`, the AC50 in experiment [1] (measured here: GFP channel) is 12.6 µM [rising, single point]. For the same molecule, the max response in experiment [2] (setting [9]) amounted to 49.2%; in experiment [2] (setting [12]), 48.9%.
